Measurements: publication PMC9998450
These are yes or no findings as the source states them, for the method shown. Binding can be weak; no strength is given. For some assays here: In cells and extracts the contact can be indirect. For some assays here: Sequences can lack the tags named with a protein.

T1: recombinant GST-YgfB (Pseudomonas aeruginosa) (UniProt Q9HTW5)
T1 sequence: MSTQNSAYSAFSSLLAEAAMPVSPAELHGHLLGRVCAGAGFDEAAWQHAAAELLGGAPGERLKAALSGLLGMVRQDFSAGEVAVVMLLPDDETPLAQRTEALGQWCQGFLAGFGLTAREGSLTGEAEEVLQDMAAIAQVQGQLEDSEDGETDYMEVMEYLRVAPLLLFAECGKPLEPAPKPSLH


Assays:
[1] = biological target: T1, recombinant GST-YgfB (Pseudomonas aeruginosa); assay: pull-down; 10 µM recombinant GST or GST-YgfB bound to MagneGST beads, incubated with 1 ml cell lysate of ID40∆ygfB::alpA-HiBiT::HA-alpR for 45 min at 4 °C; 50 mM Tris pH 7.5, 300 mM NaCl, 0.5% IGEPAL, 2 mM DTT; eluted with 25 mM glutathione; AlpA-HiBiT detected with LgBiT on the blot; only the target purified
[2] = biological target: recombinant His-MBP-AlpA (Pseudomonas aeruginosa); assay: pull-down; 10 µM recombinant His-MBP-AlpA or His-MBP bound to MagneHis Ni particles, incubated with 10 µM recombinant YgfB for 45 min at 4 °C; 50 mM Tris pH 7.5, 25 mM imidazole, 300 mM NaCl, 0.5% IGEPAL, 2 mM DTT; eluted with 350 mM imidazole; blot with anti-YgfB; both purified

Row | Molecule | binding [1] | binding [2]
1 | AlpA-HiBiT (Pseudomonas aeruginosa ID40) | binds | 
2 | recombinant YgfB (protein, UniProt Q9HTW5 1-184) MSTQNSAYSAFSSLLAEAAMPVSPAELHGHLLGRVCAGAGFDEAAWQHAAAELLGGAPGERLKAALSGLLGMVRQDFSAGEVAVVMLLPDDETPLAQRTEALGQWCQGFLAGFGLTAREGSLTGEAEEVLQDMAAIAQVQGQLEDSEDGETDYMEVMEYLRVAPLLLFAECGKPLEPAPKPSLH |  | binds
